From article PMC8143632
These are yes or no findings as the source states them, for the method shown. In cells and extracts the contact can be indirect. Some entries that bind do so weakly or less than the wild type. Sequences can lack the tags named with a protein.

T1: SIN3A-HaloTag (human), Q96ST3
T1 chain: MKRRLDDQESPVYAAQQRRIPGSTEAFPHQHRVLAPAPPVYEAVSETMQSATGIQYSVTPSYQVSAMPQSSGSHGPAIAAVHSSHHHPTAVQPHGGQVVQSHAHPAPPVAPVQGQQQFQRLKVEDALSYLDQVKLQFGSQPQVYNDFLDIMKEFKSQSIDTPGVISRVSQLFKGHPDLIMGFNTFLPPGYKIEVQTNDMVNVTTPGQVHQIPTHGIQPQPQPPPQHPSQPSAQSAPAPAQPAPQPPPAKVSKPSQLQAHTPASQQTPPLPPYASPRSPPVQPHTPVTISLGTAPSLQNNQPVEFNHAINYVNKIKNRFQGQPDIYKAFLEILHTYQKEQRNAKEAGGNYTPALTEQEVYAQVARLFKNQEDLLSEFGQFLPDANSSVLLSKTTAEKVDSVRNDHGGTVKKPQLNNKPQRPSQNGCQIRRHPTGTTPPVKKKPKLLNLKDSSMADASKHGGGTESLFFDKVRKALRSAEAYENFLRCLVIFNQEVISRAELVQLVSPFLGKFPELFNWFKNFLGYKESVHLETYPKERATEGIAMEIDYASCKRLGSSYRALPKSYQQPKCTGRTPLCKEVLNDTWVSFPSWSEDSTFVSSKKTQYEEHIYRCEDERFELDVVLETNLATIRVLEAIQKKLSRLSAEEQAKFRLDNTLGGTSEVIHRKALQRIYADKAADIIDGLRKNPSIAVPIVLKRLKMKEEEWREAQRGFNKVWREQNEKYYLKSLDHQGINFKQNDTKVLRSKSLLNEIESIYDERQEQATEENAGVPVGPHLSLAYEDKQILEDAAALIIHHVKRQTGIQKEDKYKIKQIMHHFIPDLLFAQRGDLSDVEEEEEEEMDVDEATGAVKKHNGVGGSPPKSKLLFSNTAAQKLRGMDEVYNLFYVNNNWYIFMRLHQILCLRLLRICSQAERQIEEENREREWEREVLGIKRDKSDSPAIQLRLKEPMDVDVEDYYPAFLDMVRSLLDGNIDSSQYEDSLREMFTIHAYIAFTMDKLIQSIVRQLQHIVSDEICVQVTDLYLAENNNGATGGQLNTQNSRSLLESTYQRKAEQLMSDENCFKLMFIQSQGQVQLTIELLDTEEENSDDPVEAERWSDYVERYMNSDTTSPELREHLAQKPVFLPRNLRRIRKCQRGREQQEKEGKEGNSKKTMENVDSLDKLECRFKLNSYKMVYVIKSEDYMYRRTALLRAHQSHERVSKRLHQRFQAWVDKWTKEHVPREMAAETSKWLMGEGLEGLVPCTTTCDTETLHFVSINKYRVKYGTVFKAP

T2: SIN3A-HaloTag (human) (UniProt Q96ST3)
T2 sequence: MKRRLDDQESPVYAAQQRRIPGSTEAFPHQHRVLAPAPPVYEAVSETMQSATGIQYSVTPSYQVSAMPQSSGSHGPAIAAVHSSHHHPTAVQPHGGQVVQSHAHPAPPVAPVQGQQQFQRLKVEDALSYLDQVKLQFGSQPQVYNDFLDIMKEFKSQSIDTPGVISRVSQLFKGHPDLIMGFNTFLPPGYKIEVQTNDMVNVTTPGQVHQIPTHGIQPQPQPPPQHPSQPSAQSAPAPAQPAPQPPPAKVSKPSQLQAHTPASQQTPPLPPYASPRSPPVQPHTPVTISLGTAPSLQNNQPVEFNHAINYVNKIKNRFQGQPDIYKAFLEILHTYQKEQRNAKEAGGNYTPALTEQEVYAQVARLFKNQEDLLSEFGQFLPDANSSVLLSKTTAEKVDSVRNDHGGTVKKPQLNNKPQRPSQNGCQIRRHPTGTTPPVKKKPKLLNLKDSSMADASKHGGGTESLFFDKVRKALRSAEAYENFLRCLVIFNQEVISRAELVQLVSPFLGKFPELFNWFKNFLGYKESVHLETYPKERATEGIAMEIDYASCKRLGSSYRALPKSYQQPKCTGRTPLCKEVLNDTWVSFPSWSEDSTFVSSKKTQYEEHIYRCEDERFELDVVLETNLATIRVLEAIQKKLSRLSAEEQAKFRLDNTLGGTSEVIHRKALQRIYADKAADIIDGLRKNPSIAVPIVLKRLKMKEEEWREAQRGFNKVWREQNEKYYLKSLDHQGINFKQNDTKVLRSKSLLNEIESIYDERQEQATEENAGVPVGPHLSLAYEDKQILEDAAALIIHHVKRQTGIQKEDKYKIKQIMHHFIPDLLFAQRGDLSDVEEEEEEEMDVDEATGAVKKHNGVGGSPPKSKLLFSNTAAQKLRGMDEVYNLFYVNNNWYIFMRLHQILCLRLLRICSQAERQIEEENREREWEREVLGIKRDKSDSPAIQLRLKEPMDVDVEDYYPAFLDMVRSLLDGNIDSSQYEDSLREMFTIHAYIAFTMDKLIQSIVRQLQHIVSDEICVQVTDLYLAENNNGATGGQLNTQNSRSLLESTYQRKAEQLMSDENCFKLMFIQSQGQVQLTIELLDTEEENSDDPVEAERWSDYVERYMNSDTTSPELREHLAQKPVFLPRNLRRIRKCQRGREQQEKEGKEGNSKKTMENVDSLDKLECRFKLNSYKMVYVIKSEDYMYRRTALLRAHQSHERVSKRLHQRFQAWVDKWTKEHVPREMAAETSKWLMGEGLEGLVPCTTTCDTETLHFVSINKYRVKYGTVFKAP

T3: SIN3B_2-HaloTag (human) (UniProt O75182)
T3 sequence: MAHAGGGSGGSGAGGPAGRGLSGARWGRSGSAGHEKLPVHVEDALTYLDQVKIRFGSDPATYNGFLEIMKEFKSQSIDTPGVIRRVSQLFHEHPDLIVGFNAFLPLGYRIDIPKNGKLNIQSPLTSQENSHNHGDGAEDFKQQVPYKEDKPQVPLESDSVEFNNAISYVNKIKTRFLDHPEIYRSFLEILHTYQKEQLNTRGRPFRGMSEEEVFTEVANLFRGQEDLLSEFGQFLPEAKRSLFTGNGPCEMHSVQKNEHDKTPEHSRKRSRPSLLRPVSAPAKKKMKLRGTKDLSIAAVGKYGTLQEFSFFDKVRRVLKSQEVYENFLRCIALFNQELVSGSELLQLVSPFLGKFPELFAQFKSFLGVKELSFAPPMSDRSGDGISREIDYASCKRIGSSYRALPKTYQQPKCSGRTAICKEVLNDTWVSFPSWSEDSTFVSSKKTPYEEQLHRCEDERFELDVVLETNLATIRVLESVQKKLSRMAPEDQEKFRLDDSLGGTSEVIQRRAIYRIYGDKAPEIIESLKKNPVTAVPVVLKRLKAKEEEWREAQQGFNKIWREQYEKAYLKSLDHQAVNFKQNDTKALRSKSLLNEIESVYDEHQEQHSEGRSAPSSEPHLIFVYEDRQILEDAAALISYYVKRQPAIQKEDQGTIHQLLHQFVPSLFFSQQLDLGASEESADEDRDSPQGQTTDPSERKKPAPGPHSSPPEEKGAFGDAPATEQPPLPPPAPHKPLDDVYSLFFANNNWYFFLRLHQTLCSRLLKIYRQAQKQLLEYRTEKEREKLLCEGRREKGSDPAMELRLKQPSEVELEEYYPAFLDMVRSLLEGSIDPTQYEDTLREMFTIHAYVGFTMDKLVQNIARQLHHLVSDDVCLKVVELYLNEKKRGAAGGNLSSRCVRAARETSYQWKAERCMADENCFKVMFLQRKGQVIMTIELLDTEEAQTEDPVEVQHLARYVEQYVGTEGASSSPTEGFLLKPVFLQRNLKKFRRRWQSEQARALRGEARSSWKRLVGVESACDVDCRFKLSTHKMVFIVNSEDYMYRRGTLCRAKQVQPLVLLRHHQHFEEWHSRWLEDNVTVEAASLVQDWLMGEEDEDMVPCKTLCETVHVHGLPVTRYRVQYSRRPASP


How the values were obtained:
Assay in all cases: cross-linking; SIN3A-HaloTag or SIN3B_2-HaloTag from Flp-In-293 cells enriched on Magne HaloTag Beads; 5 mM DSSO on the beads, room temperature, 40 min; eluted with AcTEV Protease; cross-linked peptides found by mass spectrometry (XlinkX, FDR 0.01)
[1] = target: T1, SIN3A-HaloTag (human), Q96ST3; settings: remark: other sources report otherwise
SIN3A-HaloTag (human) = target: T2, SIN3A-HaloTag (human)
SIN3B_2-HaloTag (human) = target: T3, SIN3B_2-HaloTag (human)

Row | binding [1] | binding (SIN3A-HaloTag (human)) | binding (SIN3B_2-HaloTag (human)) | Binder
1 | no binding | – | – | PHF12, Q96QT6 1-1004 (protein) MWEKMETKTIVYDLDTSGGLMEQIQALLAPPKTDEAEKRSRKPEKEPRRSGRATNHDSCDSCKEGGDLLCCDHCPAAFHLQCCNPPLSEEMLPPGEWMCHRCTVRRKKREQKKELGHVNGLVDKSGKRTTSPSSDTDLLDRSASKTELKAIAHARILERRASRPGTPTSSASTETPTSEQNDVDEDIIDVDEEPVAAEPDYVQPQLRRPFELLIAAAMERNPTQFQLPNELTCTTALPGSSKRRRKEETTGKNVKKTQHELDHNGLVPLPVKVCFTCNRSCRVAPLIQCDYCPLLFHMDCLEPPLTAMPLGRWMCPNHIEHVVLNQKNMTLSNRCQVFDRFQDTVSQHVVKVDFLNRIHKKHPPNRRVLQSVKRRSLKVPDAIKSQYQFPPPLIAPAAIRDGELICNGIPEESQMHLLNSEHLATQAEQQEWLCSVVALQCSILKHLSAKQMPSHWDSEQTEKADIKPVIVTDSSVTTSLQTADKTPTPSHYPLSCPSGISTQNSLSCSPPHQSPALEDIGCSSCAEKSKKTPCGTANGPVNTEVKANGPHLYSSPTDSTDPRRLPGANTPLPGLSHRQGWPRPLTPPAAGGLQNHTVGIIVKTENATGPSSCPQRSLVPVPSLPPSIPSSCASIENTSTLQRKTVQSQIGPPLTDSRPLGSPPNATRVLTPPQAAGDGILATTANQRFSSPAPSSDGKVSPGTLSIGSALTVPSFPANSTAMVDLTNSLRAFMDVNGEIEINMLDEKLIKFLALQRIHQLFPSRVQPSPGSVGTHQLASGGHHIEVQRKEVQARAVFYPLLGLGGAVNMCYRTLYIGTGADMDVCLTNYGHCNYVSGKHACIFYDENTKHYELLNYSEHGTTVDNVLYSCDFSEKTPPTPPSSIVAKVQSVIRRRRHQKQDEEPSEEAAMMSSQAQGPQRRPCNCKASSSSLIGGSGAGWEGTALLHHGSYIKLGCLQFVFSITEFATKQPKGDASLLQDGVLAEKLSLKPHQGPVLRSNSVP
2 | – | binds | binds | BRMS1L (protein, UniProt Q5PSV4 1-323) MPVHSRGDKKETNHHDEMEVDYAENEGSSSEDEDTESSSVSEDGDSSEMDDEDCERRRMECLDEMSNLEKQFTDLKDQLYKERLSQVDAKLQEVIAGKAPEYLEPLATLQENMQIRTKVAGIYRELCLESVKNKYECEIQASRQHCESEKLLLYDTVQSELEEKIRRLEEDRHSIDITSELWNDELQSRKKRKDPFSPDKKKPVVVSGPYIVYMLQDLDILEDWTTIRKAMATLGPHRVKTEPPVKLEKHLHSARSEEGRLYYDGEWYIRGQTICIDKKDECPTSAVITTINHDEVWFKRPDGSKSKLYISQLQKGKYSIKHS
3 | – | binds | binds | SUDS3 (protein, UniProt Q9H7L9 1-328) MSAAGLLAPAPAQAGAPPAPEYYPEEDEELESAEDDERSCRGRESDEDTEDASETDLAKHDEEDYVEMKEQMYQDKLASLKRQLQQLQEGTLQEYQKRMKKLDQQYKERIRNAELFLQLETEQVERNYIKEKKAAVKEFEDKKVELKENLIAELEEKKKMIENEKLTMELTGDSMEVKPIMTRKLRRRPNDPVPIPDKRRKPAPAQLNYLLTDEQIMEDLRTLNKLKSPKRPASPSSPEHLPATPAESPAQRFEARIEDGKLYYDKRWYHKSQAIYLESKDNQKLSCVISSVGANEIWVRKTSDSTKMRIYLGQLQRGLFVIRRRSAA
